Laboratory results reported in paper PMC5603727.

What was measured:
Experiment in all cases: EMSA
Conditions in all cases: tRNA competitor; EMSA: 20 mM HEPES pH 7.4, 50 mM NaCl, 1 mM MgCl2, 1 mM DTT, 1 ug/ul BSA, 2.5 ug/ul yeast tRNA, 500 pM RNA, RT 10 min or ice 20 min; recombinant protein; label: 32P in EMSA
ROQ Y250A = target: T1, ROQ Y250A (UniProt Q4VGL6)
T1 sequence (looked up, limits assumed): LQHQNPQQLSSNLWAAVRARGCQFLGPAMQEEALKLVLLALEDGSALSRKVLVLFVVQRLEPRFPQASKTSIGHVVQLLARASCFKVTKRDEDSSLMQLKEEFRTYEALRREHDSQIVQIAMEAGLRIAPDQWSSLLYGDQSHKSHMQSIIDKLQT

ROQ Ser253 mutant = ROQ Ser253 mutant (UniProt Q4VGL6)
ROQ R260A = target: T2, ROQ R260A (UniProt Q4VGL6)
T2 sequence (looked up, limits assumed): T1 sequence (looked up, limits assumed) with A80Y, R90A

ROQ K259A = target: T3, ROQ K259A (UniProt Q4VGL6)
T3 sequence (looked up, limits assumed): T1 sequence (looked up, limits assumed) with A80Y, K89A

ROQ S265Y = target: T4, ROQ S265Y (UniProt Q4VGL6)
T4 sequence (looked up, limits assumed): T1 sequence (looked up, limits assumed) with A80Y, S95Y

ROQ K239A = target: T5, ROQ K239A (UniProt Q4VGL6)
T5 sequence (looked up, limits assumed): T1 sequence (looked up, limits assumed) with K69A, A80Y

ROQ K220A = target: T6, ROQ K220A (UniProt Q4VGL6)
T6 sequence (looked up, limits assumed): T1 sequence (looked up, limits assumed) with K50A, A80Y

UCCACACCGUUCUAGGUGCUGG [Ox40 ADE-like SL]
binding result (ROQ Y250A): binds more weakly
binding result (ROQ Ser253 mutant): binds
binding result (ROQ R260A): binds more weakly
binding result (ROQ K259A): binds more weakly
binding result (ROQ S265Y): binds more weakly
binding result (ROQ K239A): binds more weakly
binding result (ROQ K220A): binds more weakly

Where a chain is given by its changes, count along the chain named. The exact form of at least one protein or probe is not confirmed. For some of these results: The comparison behind a weaker result is the experiment's own reference, which may not be listed here. For some of these results: Protein sequences can lack the tags named with them.
